Among the data in paper PMC13223278 are binding values, retold here.

Sequences of proteins named here, by UniProt entry; tags and fusion partners are left off. Residues count along the entry.
UniProt P40189, residues 23-918: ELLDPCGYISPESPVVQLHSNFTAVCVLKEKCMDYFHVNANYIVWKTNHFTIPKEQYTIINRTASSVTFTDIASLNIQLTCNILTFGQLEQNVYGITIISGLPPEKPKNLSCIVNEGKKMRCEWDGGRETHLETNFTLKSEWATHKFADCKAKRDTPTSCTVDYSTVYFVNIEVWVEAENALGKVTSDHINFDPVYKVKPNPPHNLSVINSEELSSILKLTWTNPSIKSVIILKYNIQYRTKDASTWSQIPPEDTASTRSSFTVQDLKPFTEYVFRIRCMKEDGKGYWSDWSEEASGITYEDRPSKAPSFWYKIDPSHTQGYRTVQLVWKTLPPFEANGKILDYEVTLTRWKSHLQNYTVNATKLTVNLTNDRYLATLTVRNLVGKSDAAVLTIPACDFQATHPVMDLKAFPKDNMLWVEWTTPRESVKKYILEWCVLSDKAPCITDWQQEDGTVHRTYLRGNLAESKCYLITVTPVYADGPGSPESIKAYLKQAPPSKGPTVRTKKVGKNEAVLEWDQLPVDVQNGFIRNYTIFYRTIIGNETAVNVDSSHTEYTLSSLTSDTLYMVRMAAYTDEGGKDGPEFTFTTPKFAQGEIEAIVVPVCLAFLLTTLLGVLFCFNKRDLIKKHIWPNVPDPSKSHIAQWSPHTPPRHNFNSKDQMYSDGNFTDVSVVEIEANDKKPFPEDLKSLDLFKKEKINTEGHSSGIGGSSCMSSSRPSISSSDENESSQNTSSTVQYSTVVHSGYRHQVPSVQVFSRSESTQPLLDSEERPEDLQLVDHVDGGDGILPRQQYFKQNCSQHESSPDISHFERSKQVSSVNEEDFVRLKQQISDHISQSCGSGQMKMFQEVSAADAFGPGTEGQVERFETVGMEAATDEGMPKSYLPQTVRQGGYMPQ
UniProt Q08334, residues 20-325: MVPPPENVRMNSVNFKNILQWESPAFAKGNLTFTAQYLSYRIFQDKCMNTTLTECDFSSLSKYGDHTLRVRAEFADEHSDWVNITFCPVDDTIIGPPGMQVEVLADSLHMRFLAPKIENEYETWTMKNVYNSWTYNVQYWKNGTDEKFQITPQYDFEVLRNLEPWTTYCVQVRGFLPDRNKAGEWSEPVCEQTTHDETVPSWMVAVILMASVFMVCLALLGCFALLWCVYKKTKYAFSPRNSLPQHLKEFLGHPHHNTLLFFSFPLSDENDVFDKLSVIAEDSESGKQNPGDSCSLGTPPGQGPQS

In assay [1] the target is glycoprotein 130 (human (endogenous in OKF6/TERT-2)) (UniProt P40189). The experiment in a line: co-IP; OKF6/TERT-2 cells treated without or with 50 ng/ml human IL-22 for 3 h, cross-linked with 0.1 mM DSP for 30 min, lysed; 400 ug protein with 15 ug IL22RA1, IL10RB or gp130 antibody overnight at 4 °C; Protein A/G magnetic beads; SDS-PAGE.
For assay [2] the target is unchanged. Briefly: proximity ligation; OKF6/TERT-2 cells on fibronectin-treated coverslips, fixed with 2% paraformaldehyde; two of the antibodies (goat anti-IL22RA, mouse anti-IL10RB, rabbit anti-gp130, 5 ug/ml each) in combination overnight at 4 °C; Duolink In Situ Red; confocal microscopy, average number of complexes per cell.

No constants are given. Whether binding was seen depends on the method and setting. In cells and extracts the contact can be indirect. Some results given as binding are weak or reduced against the parent protein; the word gives no strength.

With “interleukin-10 receptor subunit beta (from UniProt Q08334 20-325)”, the binding result in assay [1] and in assay [2] was “binds” in each case.
